From the supplement of paper PMC8256030
Structures can show the parent of a compound that is named as a salt. This is one part of the list. Single values are uncertain here, since repeats match poorly.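 HEK293T cells were given each compound shortly before transfection with a reporter in which red mCherry is followed by the SARS-CoV-2 frameshift element and then GFP in the −1 frame, so GFP appears only after frameshifting.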

Key:
[1] = system: SARS-CoV-2 -1 PRF reporter mCherry-FSE-GFP(-1); assay: mCherry (red) intensity as percent of control; higher = higher upstream reporter expression; settings: 10 µM; 24 h; HEK293T
[2] = system: SARS-CoV-2 -1 PRF reporter mCherry-FSE-GFP(-1); assay: percent effect, decrease of GFP/mCherry ratio (-1 PRF reporter) relative to controls; higher = stronger frameshift inhibition; settings: 10 µM; 24 h; HEK293T

SMILES | mCherry [1] | percent effect [2]
COc1cc2c(cc1OC)C(=O)C(CC1CCN(Cc3ccccc3)CC1)C2 (stereo not given) [Donepezil·HCl] | 121% | -1.22%
NS(=O)(=O)c1cc2c(cc1Cl)CN(C1CCCCC1)C2=O [clorexolone] | 137% | -9.04%
CCN(CC)CCCC(C)Nc1ccnc2cc(Cl)ccc12 (stereo not given) | 96% | -0.918%
C[C@@H]1[C@H](O)[C@@H](C)/C=C/C=C/C=C/C=C/C=C/C=C/C=C/[C@H](O[C@@H]2O[C@H](C)[C@@H](O)[C@H](N)[C@@H]2O)C[C@@H]2O[C@](O)(C[C@@H](O)C[C@@H](O)[C@H](O)CC[C@@H](O)C[C@@H](O)CC(=O)O[C@H]1C)C[C@H](O)[C@H]2C(=O)O [Fungizone] | 40.9% | -9.29%
CC1CC(=O)NN=C1c1cc(-n2ccnc2)cs1 (stereo not given) [motapizone] | 136% | -0.503%
CC(=O)Nc1ccc(OCCOCCOc2ccc(NC(C)=O)cc2)cc1 [diamfenetide] | 78.8% | -3.87%
Cc1cc(NC(=O)C2=C(O)c3ccccc3S(=O)(=O)N2C)no1 | 108% | 2.37%
CO/N=C(\C(=O)N[C@@H]1C(=O)N2C(C(=O)O)=C(CSc3nnnn3C)CS[C@H]12)c1csc(N)n1 | 91.6% | -1.58%
CN(CCOc1ccc(CC2SC(=O)NC2=O)cc1)c1ccccn1 (stereo not given) [rosiglitazone] | 99.7% | -3.54%
C=C(NC(=O)C(=C)NC(=O)c1csc(C2=NC3c4csc(n4)C4NC(=O)c5csc(n5)C(C(C)(O)C(C)O)NC(=O)C5CSC(=N5)/C(=C\C)NC(=O)C(C(C)O)NC(=O)c5csc(n5)C3(CC2)NC(=O)C(C)NC(=O)C(=C)NC(=O)C(C)NC(=O)C(C(C)CC)NC2C=Cc3c(C(C)O)cc(nc3C2O)C(=O)OC4C)n1)C(N)=O (stereo not given) | 102% | -4.07%

Fetched one by one from the entries so far:
SMILES | mCherry [1] | percent effect [2]
CO/N=C(\C(=O)N[C@@H]1C(=O)N2C(C(=O)O)=C(CSc3nnnn3C)CS[C@H]12)c1csc(N)n1 | 91.6% | -1.58%
CN(CCOc1ccc(CC2SC(=O)NC2=O)cc1)c1ccccn1 (stereo not given) [rosiglitazone] | 99.7% | -3.54%
